The target in test [1] is recombinant IL-1R1 (R&D Systems) (UniProt P14778). As to the kind of experiment: SPR off-rate screening of expression supernatants on IL-1R1 CM5 chip.
Test [2] shares this target. As to the kind of experiment: supernatant receptor binding assay, IL-1R1 captured on ELISA plate, competitor IL-1β.
Test [3] deals with IL-1R1-Fc fusion protein (Axxora) (UniProt P14778). As to the kind of experiment: competition ELISA, IL-1R1-Fc coated, competitor 500 pM IL-1ra. (In general: In an ELISA, binding on a coated surface is turned into a signal by an enzyme label.)
Test [4] has the same target. Nature of the test: competition ELISA, IL-1R1 coated plate, competitor 500 pM IL-1ra.

Sequences of proteins named here, by UniProt entry; tags and fusion partners are left off. A change or cut given only in a name is not applied to a line headed by its entry. Residues count along the entry.
UniProt P14778: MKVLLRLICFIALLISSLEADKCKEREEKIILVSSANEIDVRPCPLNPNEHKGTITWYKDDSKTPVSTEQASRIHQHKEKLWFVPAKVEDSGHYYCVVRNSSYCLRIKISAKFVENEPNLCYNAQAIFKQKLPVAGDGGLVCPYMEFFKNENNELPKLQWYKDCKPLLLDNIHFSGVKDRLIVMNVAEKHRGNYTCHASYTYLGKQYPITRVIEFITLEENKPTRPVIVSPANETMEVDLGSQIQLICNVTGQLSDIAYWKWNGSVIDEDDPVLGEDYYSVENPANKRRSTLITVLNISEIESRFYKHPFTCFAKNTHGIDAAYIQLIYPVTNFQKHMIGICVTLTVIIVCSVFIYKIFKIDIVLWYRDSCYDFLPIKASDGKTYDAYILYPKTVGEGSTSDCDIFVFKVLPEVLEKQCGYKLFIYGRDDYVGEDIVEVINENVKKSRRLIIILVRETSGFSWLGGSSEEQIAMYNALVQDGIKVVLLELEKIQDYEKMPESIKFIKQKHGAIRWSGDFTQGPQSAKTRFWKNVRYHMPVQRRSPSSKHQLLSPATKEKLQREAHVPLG
IL-1R1-Fc fusion protein (Axxora): residues 18-336 of P14778
recombinant IL-1R1 (R&D Systems): residues 18-332 of P14778

No constants are given. Whether binding was seen depends on the method and setting. Some entries that bind do so weakly or less than the wild type.

B1: DOM4-130-46 (protein)
VL: DIQMTQSPSSLSASVGDRVTITCRASQDIYLNLDWYQQKPGKAPKLLINFGSELQSGVPSRFSGSGSGTDFTLTISSLQPEDFATYYCQPSFYFPYTFGQGTKVEIRR
B1: the binding entry in test [1] is on record as “binds”.

B2: DOM4-130 (protein)
VL: DIQMTQSPSSLSASVGDRVTITCRASQDIYLNLNWYQQKPGKAPKLLIYGTSNLQSGVPSRFSGSGSGTDFTLTISSLQPEDFATYYCQPSFLYPYTFGQGTKVEIRR
For the molecule B2, the binding entry in test [2] was “binds”.

B3: DOM4-130-3 (protein)
VL: DIQMTQSPSSLSASVGDRVTITCRASQDIYLNLDWYQQKPGKAPKLLIYGTSNLQSGVPSRFSGSGSGTDFTLTISSLQPEDFATYYCQPSFYFPYTFGQGTKVEIRR
As to B3, the binding result in test [3], in test [4] and in test [1] was “binds” throughout.

The values are drawn from patent US20080311111A1.
